Experimental data reported in PMC8567434.
Results are given in words; binding and its absence hold for the method and conditions named.

Chains of the proteins cited; added tags and fusions are not shown. Residues count along the entry.
UniProt Q16637, residues 82-147: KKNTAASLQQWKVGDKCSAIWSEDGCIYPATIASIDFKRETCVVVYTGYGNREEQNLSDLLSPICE
UniProt P0AFG0, residues 123-181: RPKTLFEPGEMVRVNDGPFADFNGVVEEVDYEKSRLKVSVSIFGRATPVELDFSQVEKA

How the values were obtained:
Assay in all cases: 1D 1H NMR at increasing sample concentrations; 1H 1D spectra of each Tudor domain in its NMR buffer at increasing concentrations (typically 0.1–0.5 mM); amide region checked for concentration-dependent aggregation; NusG/RfaH: 25 mM HEPES pH 7.5, 50 mM NaCl; SMN: 25 mM potassium phosphate pH 6.8, 20 mM NaCl, 2 mM DTT; both purified
[1] = target: SMN Tudor domain (82–147) (UniProt Q16637)
[2] = target: NusG Tudor domain (123–181) (UniProt P0AFG0)
[3] = target: RfaH Tudor domain (101–162) (UniProt P0AFW0)

In the case of “SMN Tudor domain (82–147) (from UniProt Q16637 82-147) (domain or fragment)”, the binding [1] is reported as “no binding (tested: ∼500 μM)”.

In the case of “NusG Tudor domain (123–181) (from UniProt P0AFG0 123-181) (domain or fragment)”, the binding [2] is reported as “no binding (tested: ∼500 μM)”.

B1: RfaH Tudor domain (101–162) (domain or fragment, UniProt P0AFW0 101-162)
chain: PKDIVDPATPYPGDKVIITEGAFEGFQAIFTEPDGEARSMLLLNLINKEIKHSVKNTEFRKL
For B1, the binding [3] was “no binding (tested: ∼500 μM)”.
